Test results: publication PMC6868820
Results are given in words; binding and its absence hold for the method and conditions named. In cells and extracts the contact can be indirect. Some entries that bind do so weakly or less than the wild type.

The chains behind the UniProt entries cited, without tags or fusion partners.
UniProt Q9NYV6: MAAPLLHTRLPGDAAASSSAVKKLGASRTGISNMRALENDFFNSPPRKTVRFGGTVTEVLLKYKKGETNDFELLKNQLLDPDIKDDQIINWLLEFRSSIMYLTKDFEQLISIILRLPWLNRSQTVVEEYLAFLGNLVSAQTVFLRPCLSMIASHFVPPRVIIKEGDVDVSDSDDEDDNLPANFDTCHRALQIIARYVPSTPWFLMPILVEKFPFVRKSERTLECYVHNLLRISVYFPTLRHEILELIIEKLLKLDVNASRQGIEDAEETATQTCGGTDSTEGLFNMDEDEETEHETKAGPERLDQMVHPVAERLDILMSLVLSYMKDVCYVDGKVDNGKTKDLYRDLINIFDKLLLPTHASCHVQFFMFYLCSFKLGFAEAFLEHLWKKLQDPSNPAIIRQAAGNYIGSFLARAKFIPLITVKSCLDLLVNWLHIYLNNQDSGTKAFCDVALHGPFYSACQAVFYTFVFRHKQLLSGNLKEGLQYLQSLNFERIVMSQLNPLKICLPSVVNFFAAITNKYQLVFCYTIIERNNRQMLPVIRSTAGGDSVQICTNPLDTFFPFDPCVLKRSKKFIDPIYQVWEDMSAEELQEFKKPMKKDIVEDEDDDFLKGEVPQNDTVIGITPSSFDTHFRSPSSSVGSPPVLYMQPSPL

Biological target: TIFIA (human) (UniProt Q9NYV6)
Test: co-IP; co-IP followed by western blot, in GBC cells; bait and conditions not described

B1: PA2G4 (protein, UniProt Q9UQ80 1-394)
chain: MSGEDEQQEQTIAEDLVVTKYKMGGDIANRVLRSLVEASSSGVSVLSLCEKGDAMIMEETGKIFKKEKEMKKGIAFPTSISVNNCVCHFSPLKSDQDYILKEGDLVKIDLGVHVDGFIANVAHTFVVDVAQGTQVTGRKADVIKAAHLCAEAALRLVKPGNQNTQVTEAWNKVAHSFNCTPIEGMLSHQLKQHVIDGEKTIIQNPTDQQKKDHEKAEFEVHEVYAVDVLVSSGEGKAKDAGQRTTIYKRDPSKQYGLKMKTSRAFFSEVERRFDAMPFTLRAFEDEKKARMGVVECAKHELLQPFNVLYEKEGEFVAQFKFTVLLMPNGPMRITSGPFEPDLYKSEMEVQDAELKALLQSSASRKTQKKKKKKASKTAENATSGETLEENEAGD
  binding: binds
